In this experiment the target is Flag-DYNLL1 (UniProt P63167). The experiment can be described thus: co-IP.

Protein sequences, listed by entry. Tags and fused reporters are not part of them.
UniProt P63167: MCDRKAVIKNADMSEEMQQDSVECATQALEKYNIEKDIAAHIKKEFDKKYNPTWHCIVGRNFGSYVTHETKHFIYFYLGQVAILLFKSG

No constants are given. Whether binding was seen depends on the method and setting. Binding seen in cells or lysates may run through a third protein. Some entries that bind do so weakly or less than the wild type. Sequences can lack the tags named with a protein.

Consider two molecules from article doi:10.1101/2023.03.27.534416 (bioRxiv, 2023).

B1: Myc-MRE11 fragment (residues 293-483) (domain or fragment, UniProt P49959 293-483)
chain: KMNMHKIPLHTVRQFFMEDIVLANHPDIFNPDNPKVTQAIQSFCLEKIEEMLENAERERLGNSHQPEKPLVRLRVDYSGGFEPFSVLRFSQKFVDRVANPKDIIHFFRHREQKEKTGEEINFGKLITKPSEGTTLRVEDLVKQYFQTAEKNVQLSLLTERGMGEAVQEFVDKEEKDAIEELVKYQLEKTQR
As for B1, the binding entry was “binds”.

B2: Myc-MRE11 N-terminal fragment (residues 1-181) (domain or fragment, UniProt P49959 1-181)
chain: MSTADALDDENTFKILVATDIHLGFMEKDAVRGNDTFVTLDEILRLAQENEVDFILLGGDLFHENKPSRKTLHTCLELLRKYCMGDRPVQFEILSDQSVNFGFSKFPWVNYQDGNLNISIPVFSIHGNHDDPTGADALCALDILSCAGFVNHFGRSMSVEKIDISPVLLQKGSTKIALYGL
In the case of B2, the binding result is on record as “binds”.
